From patent US20250145665A1, “MACROCYCLIC PEPTIDES USEFUL AS MODULATORS OF TNF ALPHA” (Bristol-Myers Squibb Company, priority 2023, published 2025)
Where two headings read alike, the source gives them in different places. Some of these results come from one statement about several compounds together. Starred links: 1 amine or outer side, 2 acyl side, 3 side chain; linkers in the order of their positions; H or OH if unused. Positions of bridges follow the written chain, without caps; N, C: chain ends. Non-standard residues stand in square brackets, D forms with d. Residues, ends and D or L forms follow the SMILES beside them. *: point of attachment. X5 = Cn1nc(C(=O)Nc2ccc(-c3ccc(C[C@H](N[*:1])C(=O)[*:2])cc3)cc2)c2ccccc21; dArg(Nω-CH2C6H4-3-CH2Gua) = N=C(N)NCc1cccc(CNC(=N)NCCC[C@@H](N)C(=O)O)c1; Bip(4'-NH) = O=C([C@H](Cc1ccc(-c2ccc(N[*:3])cc2)cc1)N[*:1])[*:2]; Indazole3carbonyl(1-CH2COOH) = O=C(O)Cn1nc(C(=O)*)c2ccccc21; Bip(4'-COOH) = N[C@@H](Cc1ccc(-c2ccc(C(=O)O)cc2)cc1)C(=O)O; X26 = N=C(NCCC[C@@H](N[*:1])C(=O)[*:2])NCc1ccc(O)cc1; X69 = N=C(NCCC[C@@H](N[*:1])C(=O)[*:2])NCc1cccc(N)c1; Ala(morpholin-4-yl) = N[C@@H](CN1CCOCC1)C(=O)O; Phe(3-CONH2) = NC(=O)c1cccc(C[C@H](N)C(=O)O)c1; X41 = N=C(NCCCO)NCCC[C@@H](N[*:1])C(=O)[*:2]; Benzoyl(4-Ph) = O=C(c1ccc(-c2ccccc2)cc1)*; Bip = N[C@@H](Cc1ccc(-c2ccccc2)cc1)C(=O)O; 2Pal = N[C@@H](Cc1ccccn1)C(=O)O; Tic = O=C(O)[C@@H]1Cc2ccccc2CN1; Cha = N[C@@H](CC1CCCCC1)C(=O)O; X62 = COC(=O)Cc1cccc(C(=O)*)c1; Tle = CC(C)(C)[C@H](N)C(=O)O; Sar = CNCC(=O)O

Chains of the proteins cited; added tags and fusions are not shown. Residues count along the entry.
UniProt P01375, 77-233 limits assumed: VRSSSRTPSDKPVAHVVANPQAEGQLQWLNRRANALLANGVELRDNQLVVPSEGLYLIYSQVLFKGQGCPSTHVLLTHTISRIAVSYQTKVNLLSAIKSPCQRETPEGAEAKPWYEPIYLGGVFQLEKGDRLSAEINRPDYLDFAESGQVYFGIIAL

Target: TNFα (Homo sapiens, UniProt P01375)
Experiment: TNF-Induced HEK-Blue Assay
Type: cell-based
Conditions: read-out: IC50 values measured in the TNF induced HEK-Blue assay
[1] = summary statement for all examples

Row | SMILES | IC50 [1] [µM] | IC50 [µM]
1 | CC(C)C[C@@H]1NC(=O)[C@H](CCCNC(=N)N)NC(=O)[C@H](C(C)C)NC(=O)[C@@H]2CCCN2C(=O)[C@H](C(C)C)NC(=O)[C@@H](CCCNC(=N)NCc2cccc(N)c2)NC(=O)[C@H](CC(=O)O)NC(=O)[C@@H]2CCCN2C(=O)CN(C)C(=O)[C@H](Cc2ccc(-c3ccc(NC(=O)c4nn(CC(=O)O)c5ccccc45)cc3)cc2)NC(=O)[C@H](Cc2ccc(-c3ccccc3)cc2)NC(=O)[C@H](CN2CCOCC2)NC(=O)CSC[C@@H](C(=O)NCC(N)=O)NC1=O [Example 636] ({CH2CO}-[Ala(morpholin-4-yl)][Bip][Bip(4'-NH)](Indazole3carbonyl(1-CH2COOH))[Sar]PD[X69]VPVRLCG-NH2; thioether N-13) | ≤ 25 | 
2 | CC(C)C[C@@H]1NC(=O)[C@H](CCCNC(=N)N)NC(=O)[C@H](C(C)C)NC(=O)[C@@H]2CCCN2C(=O)[C@H](C(C)C)NC(=O)[C@@H](CCCNC(=N)N)NC(=O)[C@H](CC(=O)O)NC(=O)[C@@H]2CCCN2C(=O)CN(C)C(=O)[C@H](Cc2ccc(-c3ccc(NC(=O)c4nn(C)c5ccccc45)cc3)cc2)NC(=O)[C@H](Cc2ccc(-c3ccccc3)cc2)NC(=O)[C@H](CN2CCOCC2)NC(=O)CSC[C@@H](C(=O)NCC(N)=O)NC1=O [Example 338] ({CH2CO}-[Ala(morpholin-4-yl)][Bip][X5][Sar]PD[dR]VPVRLCG-NH2; thioether N-13) |  | ≤ 25
3 | CC(C)C[C@@H]1NC(=O)[C@H](CCCNC(=N)N)NC(=O)[C@H](C(C)C)NC(=O)[C@@H]2CCCN2C(=O)[C@H](C(C)C)NC(=O)[C@@H](CCCNC(=N)NCCCO)NC(=O)[C@H](CC(=O)O)NC(=O)[C@@H]2CCCN2C(=O)CN(C)C(=O)[C@H](Cc2ccc(-c3ccc(NC(=O)c4nn(CC(=O)O)c5ccccc45)cc3)cc2)NC(=O)[C@H](Cc2ccc(-c3ccccc3)cc2)NC(=O)[C@H](CN2CCOCC2)NC(=O)CSC[C@@H](C(=O)NCC(N)=O)NC1=O [Example 389] ({CH2CO}-[Ala(morpholin-4-yl)][Bip][Bip(4'-NH)](Indazole3carbonyl(1-CH2COOH))[Sar]PD[X41]VPVRLCG-NH2; thioether N-13) | ≤ 25 | 
4 | CC(C)C[C@@H]1NC(=O)[C@H](Cc2cnc[nH]2)NC(=O)[C@H](C(C)C)NC(=O)[C@@H]2CCCN2C(=O)[C@H](C(C)C)NC(=O)[C@@H](CCCNC(=N)NCc2cccc(CNC(=N)N)c2)NC(=O)[C@H](CC(=O)O)NC(=O)[C@H](Cc2ccccn2)NC(=O)CN(C)C(=O)[C@H](Cc2ccc(-c3ccc(NC(=O)c4nn(CC(=O)O)c5ccccc45)cc3)cc2)NC(=O)[C@H](Cc2ccc(-c3ccccc3)cc2)NC(=O)[C@H](CN2CCOCC2)NC(=O)CSC[C@@H](C(=O)NCC(N)=O)NC1=O [Example 621] ({CH2CO}-[Ala(morpholin-4-yl)][Bip][Bip(4'-NH)](Indazole3carbonyl(1-CH2COOH))[Sar][2Pal]D[dArg(Nω-CH2C6H4-3-CH2Gua)]VPVHLCG-NH2; thioether N-13) | ≤ 25 | 
5 | CC[C@H](C)[C@@H]1NC(=O)[C@@H](CCCNC(=N)N)NC(=O)[C@H](CC(=O)O)NC(=O)[C@H](Cc2cnc[nH]2)NC(=O)CN(C)C(=O)[C@H](Cc2ccc(-c3ccc(NC(=O)c4cccc(CC(=O)OC)c4)cc3)cc2)NC(=O)[C@H](Cc2ccc(-c3ccccc3)cc2)NC(=O)[C@H](C(C)(C)C)NC(=O)CSC[C@@H](C(=O)NCC(N)=O)NC(=O)[C@H](CC(C)C)NC(=O)[C@H](Cc2c[nH]cn2)NC(=O)[C@H](C(C)C)NC(=O)[C@@H]2CCCN2C1=O [Example 502] ({CH2CO}-[Tle][Bip][Bip(4'-NH)](X62)[Sar]HD[dR]IPVHLCG-NH2; thioether N-13) | ≤ 25 | 
6 | CC[C@H](C)[C@@H]1NC(=O)[C@@H](CCCNC(=N)N)NC(=O)[C@H](CC(=O)O)NC(=O)[C@H](Cc2cnc[nH]2)NC(=O)CN(C)C(=O)[C@H](Cc2ccc(-c3ccc(NC(=O)c4nn(C)c5ccccc45)cc3)cc2)NC(=O)[C@H](Cc2ccc(-c3ccccc3)cc2)NC(=O)[C@H](CC2CCCCC2)NC(=O)CSC[C@@H](C(=O)NCC(N)=O)NC(=O)[C@H](CC(C)C)NC(=O)[C@H](Cc2cnc[nH]2)NC(=O)[C@H](C(C)C)NC(=O)[C@@H]2CCCN2C1=O [Example 341] ({CH2CO}-[Cha][Bip][X5][Sar]HD[dR]IPVHLCG-NH2; thioether N-13) |  | ≤ 25
7 | CC(C)C[C@@H]1NC(=O)[C@H](CCCNC(=N)N)NC(=O)[C@H](C(C)C)NC(=O)[C@@H]2CCCN2C(=O)[C@H](C(C)C)NC(=O)[C@@H](CCCNC(=N)NCc2ccc(O)cc2)NC(=O)[C@H](CC(=O)O)NC(=O)[C@@H]2CCCN2C(=O)CN(C)C(=O)[C@H](Cc2ccc(-c3ccc(NC(=O)c4nn(CC(=O)O)c5ccccc45)cc3)cc2)NC(=O)[C@H](Cc2ccc(-c3ccccc3)cc2)NC(=O)[C@H](CN2CCOCC2)NC(=O)CSC[C@@H](C(=O)NCC(N)=O)NC1=O [Example 508] ({CH2CO}-[Ala(morpholin-4-yl)][Bip][Bip(4'-NH)](Indazole3carbonyl(1-CH2COOH))[Sar]PD[X26]VPVRLCG-NH2; thioether N-13) | ≤ 25 | 
8 | CC[C@H](C)[C@@H]1NC(=O)[C@@H](CCCNC(=N)N)NC(=O)[C@H](CC(=O)O)NC(=O)[C@H](Cc2cnc[nH]2)NC(=O)CN(C)C(=O)[C@H](Cc2ccc(-c3ccc(NC(=O)c4nn(CC(=O)O)c5ccccc45)cc3)cc2)NC(=O)[C@H](Cc2ccc(-c3ccc(C(=O)O)cc3)cc2)NC(=O)[C@H](CC2CCCCC2)NC(=O)CSC[C@@H](C(=O)NCC(N)=O)NC(=O)[C@H](CC(C)C)NC(=O)[C@H](Cc2cnc[nH]2)NC(=O)[C@H](C(C)C)NC(=O)[C@@H]2Cc3ccccc3CN2C1=O [Example 361] ({CH2CO}-[Cha][Bip(4'-COOH)][Bip(4'-NH)](Indazole3carbonyl(1-CH2COOH))[Sar]HD[dR]I[Tic]VHLCG-NH2; thioether N-13) | ≤ 25 | 
9 | CC[C@H](C)[C@@H]1NC(=O)[C@@H]2CCCN2C(=O)[C@H]([C@@H](C)CC)NC(=O)[C@@H](CCCNC(=N)N)NC(=O)[C@H](CC(=O)O)NC(=O)[C@H](Cc2ccccn2)NC(=O)CN(C)C(=O)[C@H](Cc2ccc(-c3ccc(NC(=O)c4nn(C)c5ccccc45)cc3)cc2)NC(=O)[C@H](Cc2ccc(-c3ccccc3)cc2)NC(=O)[C@H](C(C)(C)C)NC(=O)CSC[C@@H](C(=O)NCC(N)=O)NC(=O)[C@H](CC(C)C)NC(=O)[C@H](Cc2cccc(C(N)=O)c2)NC1=O [Example 335] ({CH2CO}-[Tle][Bip][X5][Sar][2Pal]D[dR]IPI[Phe(3-CONH2)]LCG-NH2; thioether N-13) |  | ≤ 25
10 | CC[C@H](C)[C@@H]1NC(=O)[C@@H](CCCNC(=N)N)NC(=O)[C@H](CC(=O)O)NC(=O)[C@H](Cc2cnc[nH]2)NC(=O)CN(C)C(=O)[C@H](Cc2ccc(-c3ccc(NC(=O)c4ccc(-c5ccccc5)cc4)cc3)cc2)NC(=O)[C@H](Cc2ccc(-c3ccccc3)cc2)NC(=O)[C@H](CC2CCCCC2)NC(=O)CSC[C@@H](C(=O)NCC(N)=O)NC(=O)[C@H](CC(C)C)NC(=O)[C@H](Cc2cnc[nH]2)NC(=O)[C@H](C(C)C)NC(=O)[C@@H]2CCCN2C1=O [Example 307] ({CH2CO}-[Cha][Bip][Bip(4'-NH)](Benzoyl(4-Ph))[Sar]HD[dR]IPVHLCG-NH2; thioether N-13) |  | ≤ 25
